# Measurements: patent US20130270124
# Negatives hold for the conditions tested. For some assays here: The exact form of at least one protein or probe is not confirmed.
# Assays:
# HER2 (ErbB2) = HER2 (ErbB2) (UniProt P04626); test: binding assay; details: 5'-amino modifier C6; impedance; PBS pH 4.0, 15 min releases HER2; rebinds at pH 6 (30 ng/ml); purified recombinant protein; protein details: R&D Systems; label: 5'-amine, amide-coupled to MPA on gold electrode; single-stranded DNA
# Immunoglobulin G (IgG) = test: binding assay; details: 5'-amino modifier C6; impedance; 20 ug/ml IgG in PBS, 30 min, Ret unchanged; purified native protein; protein details: Sigma-Aldrich; label: 5'-amine, amide-coupled to MPA on gold electrode; single-stranded DNA
sequence,measurement,setting,value
CTTCTGCCCGCCTCCTTCCTGGGGCCTGGATACGGATTGGTAAGGATTAGTAGGGGGCATAGCTGGAGACGAGATAGGCGGACACT [HER2 NH2-aptamer],binding result,HER2 (ErbB2),no binding
same,binding result,Immunoglobulin G (IgG),no binding
